The other results are listed elsewhere or left out. The data scatter; read single values as rough.

Sequences of proteins named here, by UniProt entry; tags and fusion partners are left off. A change or cut given only in a name is not applied to a line headed by its entry. Residues count along the entry.
UniProt O95716: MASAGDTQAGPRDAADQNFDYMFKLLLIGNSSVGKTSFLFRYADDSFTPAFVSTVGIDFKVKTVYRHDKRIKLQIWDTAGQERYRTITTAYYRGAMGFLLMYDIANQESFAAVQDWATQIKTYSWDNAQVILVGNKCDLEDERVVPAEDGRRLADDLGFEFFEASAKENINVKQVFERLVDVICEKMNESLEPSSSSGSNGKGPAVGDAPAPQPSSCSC
UniProt Q5THK1, 1411-1435: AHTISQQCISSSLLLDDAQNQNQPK
UniProt O60216: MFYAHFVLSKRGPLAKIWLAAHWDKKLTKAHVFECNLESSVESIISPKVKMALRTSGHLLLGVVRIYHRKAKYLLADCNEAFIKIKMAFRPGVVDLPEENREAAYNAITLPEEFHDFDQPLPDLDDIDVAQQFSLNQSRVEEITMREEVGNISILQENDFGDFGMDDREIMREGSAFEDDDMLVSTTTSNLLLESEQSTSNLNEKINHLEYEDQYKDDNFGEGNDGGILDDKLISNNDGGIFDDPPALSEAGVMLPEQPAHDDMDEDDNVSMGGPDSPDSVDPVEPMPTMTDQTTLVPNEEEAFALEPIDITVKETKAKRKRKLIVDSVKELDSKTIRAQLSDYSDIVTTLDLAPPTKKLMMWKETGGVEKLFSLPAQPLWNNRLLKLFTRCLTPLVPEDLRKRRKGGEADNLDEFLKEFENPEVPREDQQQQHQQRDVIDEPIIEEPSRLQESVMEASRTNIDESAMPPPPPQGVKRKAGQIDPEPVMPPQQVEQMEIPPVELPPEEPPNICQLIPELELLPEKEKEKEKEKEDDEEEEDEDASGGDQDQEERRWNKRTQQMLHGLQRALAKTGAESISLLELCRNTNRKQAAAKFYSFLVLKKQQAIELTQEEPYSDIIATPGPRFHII
UniProt Q9Y520: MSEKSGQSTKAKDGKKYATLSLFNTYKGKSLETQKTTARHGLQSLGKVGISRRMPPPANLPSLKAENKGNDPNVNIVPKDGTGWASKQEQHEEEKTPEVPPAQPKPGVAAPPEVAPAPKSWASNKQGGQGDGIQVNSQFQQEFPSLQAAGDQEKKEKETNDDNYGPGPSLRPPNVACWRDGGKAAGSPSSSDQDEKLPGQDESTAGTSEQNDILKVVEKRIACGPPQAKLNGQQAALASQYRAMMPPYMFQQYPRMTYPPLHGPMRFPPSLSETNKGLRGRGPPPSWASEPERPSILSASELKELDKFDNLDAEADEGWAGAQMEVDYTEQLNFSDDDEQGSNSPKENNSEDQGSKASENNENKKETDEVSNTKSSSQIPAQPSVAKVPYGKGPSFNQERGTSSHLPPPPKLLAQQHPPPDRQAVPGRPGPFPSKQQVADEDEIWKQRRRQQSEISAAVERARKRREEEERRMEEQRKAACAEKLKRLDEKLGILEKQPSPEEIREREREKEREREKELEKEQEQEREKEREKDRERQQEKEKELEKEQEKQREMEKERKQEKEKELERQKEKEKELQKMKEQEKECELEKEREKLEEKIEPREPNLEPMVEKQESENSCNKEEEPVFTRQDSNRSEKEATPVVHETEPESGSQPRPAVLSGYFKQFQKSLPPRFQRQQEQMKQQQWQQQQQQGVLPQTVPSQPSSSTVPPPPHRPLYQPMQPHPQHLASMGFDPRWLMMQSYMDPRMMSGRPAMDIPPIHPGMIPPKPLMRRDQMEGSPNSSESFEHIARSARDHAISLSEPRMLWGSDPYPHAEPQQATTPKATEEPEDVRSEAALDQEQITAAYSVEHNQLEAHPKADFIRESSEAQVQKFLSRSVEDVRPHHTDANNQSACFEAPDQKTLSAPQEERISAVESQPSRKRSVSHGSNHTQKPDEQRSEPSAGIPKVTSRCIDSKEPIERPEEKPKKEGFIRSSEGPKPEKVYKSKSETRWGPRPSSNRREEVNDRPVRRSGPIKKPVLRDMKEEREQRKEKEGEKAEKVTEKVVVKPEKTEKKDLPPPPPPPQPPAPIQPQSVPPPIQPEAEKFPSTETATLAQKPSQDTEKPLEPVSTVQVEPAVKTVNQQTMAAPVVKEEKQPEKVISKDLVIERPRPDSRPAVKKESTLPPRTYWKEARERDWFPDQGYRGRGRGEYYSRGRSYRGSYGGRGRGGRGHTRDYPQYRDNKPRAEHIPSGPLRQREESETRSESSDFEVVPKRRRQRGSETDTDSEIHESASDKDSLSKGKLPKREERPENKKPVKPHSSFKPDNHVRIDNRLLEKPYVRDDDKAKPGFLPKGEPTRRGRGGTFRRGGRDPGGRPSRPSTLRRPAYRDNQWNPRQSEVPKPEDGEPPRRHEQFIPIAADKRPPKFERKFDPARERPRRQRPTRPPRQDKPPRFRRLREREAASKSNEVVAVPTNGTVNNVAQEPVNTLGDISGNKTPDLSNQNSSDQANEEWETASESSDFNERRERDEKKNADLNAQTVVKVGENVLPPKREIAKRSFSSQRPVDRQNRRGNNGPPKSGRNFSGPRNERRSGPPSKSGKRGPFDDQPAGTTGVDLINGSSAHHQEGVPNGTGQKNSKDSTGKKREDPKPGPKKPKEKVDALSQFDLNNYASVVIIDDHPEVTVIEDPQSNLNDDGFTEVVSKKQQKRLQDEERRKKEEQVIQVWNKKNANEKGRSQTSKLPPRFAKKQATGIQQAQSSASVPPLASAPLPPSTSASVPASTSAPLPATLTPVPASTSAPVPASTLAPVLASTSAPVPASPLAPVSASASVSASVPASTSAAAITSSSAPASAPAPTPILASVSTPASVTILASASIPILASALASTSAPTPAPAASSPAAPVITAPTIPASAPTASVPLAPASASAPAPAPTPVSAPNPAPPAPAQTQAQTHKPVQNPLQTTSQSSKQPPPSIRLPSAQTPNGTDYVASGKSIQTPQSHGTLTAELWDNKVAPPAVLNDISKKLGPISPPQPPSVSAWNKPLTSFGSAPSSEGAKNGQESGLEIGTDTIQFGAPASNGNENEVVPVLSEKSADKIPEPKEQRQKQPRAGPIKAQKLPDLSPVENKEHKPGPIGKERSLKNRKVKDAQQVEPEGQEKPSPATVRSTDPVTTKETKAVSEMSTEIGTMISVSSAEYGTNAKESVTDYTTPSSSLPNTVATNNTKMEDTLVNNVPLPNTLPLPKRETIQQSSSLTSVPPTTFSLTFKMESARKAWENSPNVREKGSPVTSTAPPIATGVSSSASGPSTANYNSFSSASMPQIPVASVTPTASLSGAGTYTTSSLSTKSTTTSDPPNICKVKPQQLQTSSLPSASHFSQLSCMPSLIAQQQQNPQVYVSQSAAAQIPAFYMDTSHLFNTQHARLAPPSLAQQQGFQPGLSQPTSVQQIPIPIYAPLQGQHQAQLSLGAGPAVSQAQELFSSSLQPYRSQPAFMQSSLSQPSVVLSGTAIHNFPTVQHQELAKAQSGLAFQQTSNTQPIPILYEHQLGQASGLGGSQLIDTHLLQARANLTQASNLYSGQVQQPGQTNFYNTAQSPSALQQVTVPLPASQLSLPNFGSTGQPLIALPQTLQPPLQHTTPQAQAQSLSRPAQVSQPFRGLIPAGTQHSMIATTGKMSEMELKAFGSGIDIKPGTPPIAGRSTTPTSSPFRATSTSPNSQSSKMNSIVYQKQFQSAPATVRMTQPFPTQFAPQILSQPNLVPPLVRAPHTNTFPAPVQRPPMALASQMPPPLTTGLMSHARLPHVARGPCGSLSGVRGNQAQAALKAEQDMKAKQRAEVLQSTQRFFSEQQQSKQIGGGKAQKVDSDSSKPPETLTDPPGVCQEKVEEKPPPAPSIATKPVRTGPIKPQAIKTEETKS
UniProt Q12923, 2216-2235: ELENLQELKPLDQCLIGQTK
UniProt Q06323: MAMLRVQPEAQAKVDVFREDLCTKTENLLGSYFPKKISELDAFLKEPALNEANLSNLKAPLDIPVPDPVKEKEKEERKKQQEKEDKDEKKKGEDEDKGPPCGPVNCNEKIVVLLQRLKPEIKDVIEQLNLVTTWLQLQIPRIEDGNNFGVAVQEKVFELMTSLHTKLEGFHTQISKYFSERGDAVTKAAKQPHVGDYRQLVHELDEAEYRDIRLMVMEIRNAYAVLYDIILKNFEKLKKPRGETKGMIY
UniProt O00231, whole entry, looked up: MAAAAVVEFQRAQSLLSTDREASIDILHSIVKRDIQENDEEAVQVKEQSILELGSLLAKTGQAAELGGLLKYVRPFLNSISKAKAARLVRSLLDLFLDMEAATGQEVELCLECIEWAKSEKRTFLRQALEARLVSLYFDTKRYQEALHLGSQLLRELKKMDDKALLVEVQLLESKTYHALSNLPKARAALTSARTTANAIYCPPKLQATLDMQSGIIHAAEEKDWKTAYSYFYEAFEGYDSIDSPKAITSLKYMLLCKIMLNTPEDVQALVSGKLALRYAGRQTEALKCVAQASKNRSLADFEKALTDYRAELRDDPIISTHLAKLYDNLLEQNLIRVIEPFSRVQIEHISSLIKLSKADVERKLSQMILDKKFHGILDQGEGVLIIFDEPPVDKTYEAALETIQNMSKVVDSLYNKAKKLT
UniProt Q06609: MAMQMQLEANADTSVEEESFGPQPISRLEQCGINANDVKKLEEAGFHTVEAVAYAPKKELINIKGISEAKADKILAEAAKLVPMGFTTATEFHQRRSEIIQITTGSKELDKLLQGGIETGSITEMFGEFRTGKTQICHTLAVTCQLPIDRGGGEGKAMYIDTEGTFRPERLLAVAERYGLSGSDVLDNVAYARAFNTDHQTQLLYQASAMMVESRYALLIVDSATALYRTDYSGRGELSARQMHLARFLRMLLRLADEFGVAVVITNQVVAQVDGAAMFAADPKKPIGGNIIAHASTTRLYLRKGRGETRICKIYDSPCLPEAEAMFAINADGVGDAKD
UniProt P11216: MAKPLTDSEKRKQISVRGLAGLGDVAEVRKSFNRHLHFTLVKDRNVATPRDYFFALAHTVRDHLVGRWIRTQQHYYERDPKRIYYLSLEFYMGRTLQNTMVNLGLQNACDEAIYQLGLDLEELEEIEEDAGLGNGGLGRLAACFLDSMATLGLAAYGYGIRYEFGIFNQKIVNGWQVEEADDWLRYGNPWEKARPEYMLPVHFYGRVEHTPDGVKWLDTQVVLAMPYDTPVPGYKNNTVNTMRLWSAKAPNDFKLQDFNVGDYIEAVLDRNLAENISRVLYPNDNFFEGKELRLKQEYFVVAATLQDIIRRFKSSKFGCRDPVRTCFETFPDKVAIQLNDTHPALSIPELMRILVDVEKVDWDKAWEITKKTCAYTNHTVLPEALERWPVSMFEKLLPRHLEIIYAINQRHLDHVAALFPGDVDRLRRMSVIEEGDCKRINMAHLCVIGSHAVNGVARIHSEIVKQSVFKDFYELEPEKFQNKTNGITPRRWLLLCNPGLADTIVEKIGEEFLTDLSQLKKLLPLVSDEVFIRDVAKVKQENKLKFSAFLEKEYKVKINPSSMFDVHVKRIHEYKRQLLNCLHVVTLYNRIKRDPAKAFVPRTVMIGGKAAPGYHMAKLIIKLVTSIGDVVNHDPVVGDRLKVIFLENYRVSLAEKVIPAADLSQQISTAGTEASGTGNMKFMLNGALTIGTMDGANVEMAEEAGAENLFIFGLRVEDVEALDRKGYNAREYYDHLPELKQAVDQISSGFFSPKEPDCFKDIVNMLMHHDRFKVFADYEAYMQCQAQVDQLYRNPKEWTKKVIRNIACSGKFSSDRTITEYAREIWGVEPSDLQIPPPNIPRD
UniProt Q8WU10: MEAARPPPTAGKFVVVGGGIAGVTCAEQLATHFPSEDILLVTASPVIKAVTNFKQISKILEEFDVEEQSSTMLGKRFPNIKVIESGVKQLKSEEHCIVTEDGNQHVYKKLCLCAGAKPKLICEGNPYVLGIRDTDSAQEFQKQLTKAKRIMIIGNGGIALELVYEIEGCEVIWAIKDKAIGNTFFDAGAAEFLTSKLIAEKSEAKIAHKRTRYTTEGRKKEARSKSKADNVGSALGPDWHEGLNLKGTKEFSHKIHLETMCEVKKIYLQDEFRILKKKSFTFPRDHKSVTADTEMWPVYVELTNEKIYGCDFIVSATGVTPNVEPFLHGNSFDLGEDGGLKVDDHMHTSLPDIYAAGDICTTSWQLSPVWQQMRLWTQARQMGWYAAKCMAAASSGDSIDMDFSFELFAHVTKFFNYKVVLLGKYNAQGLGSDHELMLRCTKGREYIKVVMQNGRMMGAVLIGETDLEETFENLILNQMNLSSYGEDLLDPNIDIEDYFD
UniProt P25786: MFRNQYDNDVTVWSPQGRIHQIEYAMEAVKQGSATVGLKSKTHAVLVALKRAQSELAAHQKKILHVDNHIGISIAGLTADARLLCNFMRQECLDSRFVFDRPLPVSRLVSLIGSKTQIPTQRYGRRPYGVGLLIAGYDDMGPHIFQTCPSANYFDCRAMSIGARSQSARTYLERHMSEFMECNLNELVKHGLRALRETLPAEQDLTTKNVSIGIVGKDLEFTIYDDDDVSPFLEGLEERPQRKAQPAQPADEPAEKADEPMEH

This is an account of results in the supplement of paper PMC11732987, “Enantioselective OTUD7B fragment discovery through chemoproteomics screening and high-throughput optimisation” (Communications Chemistry, 2025).

Compound in the first test: ClCC(=O)N[C@@H]1CCCc2ccccc12
As to the kind of experiment: log2 mean competition ratio of IA-DTB cysteine labelling (DMSO/compound) (log2 ratio); higher = stronger cysteine engagement by compound. As to conditions: 50 µM; treatment time: 4 h; cell line lysate: HEK293T. The protocol:
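IA-DTB competitive cysteine chemoproteomics in HEK293T RIPA lysate. Lysates were treated with compound 29 or 30 at 50 or 200 µM for 4 h, then IA-DTB (500 µM, 1 h), trypsin-digested, NeutrAvidin-enriched and analysed by diaPASEF. Competition ratio = intensity DMSO / intensity compound (n=4 treated, n=64 DMSO); binding: mean log2 CR ≥ 1 and p ≤ 0.05 plus QC filters. Target is the cysteine site.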
Take RAB3D C137 (UniProt O95716): the “log2 mean competition ratio” value is -0.151.

For PRRC2B C868, the “log2 mean competition ratio” value worked out at 0.38.

For RAD50 C633, the “log2 mean competition ratio” value was 0.273.

Turning to RACK1 C153, the “log2 mean competition ratio” value was 0.0235.

Turning to PSME2 C91 (UniProt Q9UL46), the “log2 mean competition ratio” value turned out to be 0.0492.

On to PSMD4 C87, for which the “log2 mean competition ratio” value was -0.0501.

With PRR14L C1418 (UniProt Q5THK1), the “log2 mean competition ratio” value turned out to be 0.143.

For the target RAD21 C392 (UniProt O60216), the “log2 mean competition ratio” value came to 0.187.

In the case of PTCD1 C332 (UniProt O75127), the “log2 mean competition ratio” value came to 0.398.

Take PRRC2B C1184: the “log2 mean competition ratio” value was -0.000487.

PRRC2C C2340 (UniProt Q9Y520): the “log2 mean competition ratio” value is -0.165.

For PTCH1 C699, the “log2 mean competition ratio” value was -0.0288.

For PTPN13 C2229 (UniProt Q12923), the “log2 mean competition ratio” value was -0.266.

Turning to “PSME1_(C101,C101,C106,C106) (UniProt Q06323)”, the “log2 mean competition ratio” value was 0.148.

With PSMD11 C202 (UniProt O00231), the “log2 mean competition ratio” value is -0.12.

Regarding R3HCC1L C40, the “log2 mean competition ratio” value stood at 0.263.

On to RAD51 C31 (UniProt Q06609), for which the “log2 mean competition ratio” value is -0.242.

In the case of PYGB C319 (UniProt P11216), the “log2 mean competition ratio” value was found to be 0.0363.

Consider PYROXD1 C122 (UniProt Q8WU10), for which the “log2 mean competition ratio” value came to 0.46.

As to PSMA1 C182 (UniProt P25786), the “log2 mean competition ratio” value came out at 0.363.

The same test, now with this note: 200 µM; treatment time: 4 h; cell line lysate: HEK293T.
Regarding RAB3D C137 (UniProt O95716), the “log2 mean competition ratio” value is 0.0265.

Consider PRRC2B C868, for which the “log2 mean competition ratio” value turned out to be 0.131.

Take RAD50 C633: the “log2 mean competition ratio” value came out at 0.406.

As to RACK1 C153, the “log2 mean competition ratio” value was -0.383.

PSME2 C91 (UniProt Q9UL46): the “log2 mean competition ratio” value was -0.106.

For the target PSMD4 C87, the “log2 mean competition ratio” value was -0.139.

Take PRR14L C1418 (UniProt Q5THK1): the “log2 mean competition ratio” value was 0.297.

For the target RAD21 C392 (UniProt O60216), the “log2 mean competition ratio” value was -0.191.

Turning to PTCD1 C332 (UniProt O75127), the “log2 mean competition ratio” value is -0.0273.

For PRRC2B C1184, the “log2 mean competition ratio” value came to 0.125.

Turning to PRRC2C C2340 (UniProt Q9Y520), the “log2 mean competition ratio” value was determined as 0.157.

Take PTCH1 C699: the “log2 mean competition ratio” value is -0.243.

With PTPN13 C2229 (UniProt Q12923), the “log2 mean competition ratio” value is -0.117.

For “PSME1_(C101,C101,C106,C106) (UniProt Q06323)”, the “log2 mean competition ratio” value is -0.303.

PSMD11 C202 (UniProt O00231): the “log2 mean competition ratio” value is -0.188.

R3HCC1L C40: the “log2 mean competition ratio” value was -0.299.

For the target RAD51 C31 (UniProt Q06609), the “log2 mean competition ratio” value stood at 0.187.

As to PYGB C319 (UniProt P11216), the “log2 mean competition ratio” value was found to be 0.093.

Consider PYROXD1 C122 (UniProt Q8WU10), for which the “log2 mean competition ratio” value was found to be 0.232.

Take PSMA1 C182 (UniProt P25786): the “log2 mean competition ratio” value came to 0.224.
